# No constants are given. Whether binding was seen depends on the method and setting. Binding seen in cells or lysates may run through a third protein. These calls come from enrichment with a bait or labelling near it, and not all partners need be listed. Sequences can lack the tags named with a protein.
# Chains of the proteins cited; added tags and fusions are not shown.
# UniProt P13010: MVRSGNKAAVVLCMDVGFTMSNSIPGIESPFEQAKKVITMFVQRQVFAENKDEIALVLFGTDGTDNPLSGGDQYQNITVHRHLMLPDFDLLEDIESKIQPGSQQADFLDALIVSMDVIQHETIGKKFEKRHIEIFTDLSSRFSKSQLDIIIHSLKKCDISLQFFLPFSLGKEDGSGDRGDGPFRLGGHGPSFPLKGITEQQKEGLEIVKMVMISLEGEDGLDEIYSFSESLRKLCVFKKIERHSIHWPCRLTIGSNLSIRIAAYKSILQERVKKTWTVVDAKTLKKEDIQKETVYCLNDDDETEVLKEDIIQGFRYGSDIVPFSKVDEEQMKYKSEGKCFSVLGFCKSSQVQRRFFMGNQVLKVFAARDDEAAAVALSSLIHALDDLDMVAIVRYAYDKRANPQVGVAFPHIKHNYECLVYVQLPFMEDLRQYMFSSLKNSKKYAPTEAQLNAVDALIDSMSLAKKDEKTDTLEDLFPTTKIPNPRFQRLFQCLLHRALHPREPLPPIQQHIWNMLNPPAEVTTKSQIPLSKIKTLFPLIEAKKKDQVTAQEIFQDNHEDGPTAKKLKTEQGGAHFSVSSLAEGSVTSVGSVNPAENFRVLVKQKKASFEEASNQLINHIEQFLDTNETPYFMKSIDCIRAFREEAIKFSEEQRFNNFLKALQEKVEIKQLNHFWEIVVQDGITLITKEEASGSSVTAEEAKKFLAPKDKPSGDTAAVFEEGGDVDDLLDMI
# Molecular target: T1, calmodulin-streptavidin-tagged FOXL2 (human) (UniProt P58012)
# T1 sequence: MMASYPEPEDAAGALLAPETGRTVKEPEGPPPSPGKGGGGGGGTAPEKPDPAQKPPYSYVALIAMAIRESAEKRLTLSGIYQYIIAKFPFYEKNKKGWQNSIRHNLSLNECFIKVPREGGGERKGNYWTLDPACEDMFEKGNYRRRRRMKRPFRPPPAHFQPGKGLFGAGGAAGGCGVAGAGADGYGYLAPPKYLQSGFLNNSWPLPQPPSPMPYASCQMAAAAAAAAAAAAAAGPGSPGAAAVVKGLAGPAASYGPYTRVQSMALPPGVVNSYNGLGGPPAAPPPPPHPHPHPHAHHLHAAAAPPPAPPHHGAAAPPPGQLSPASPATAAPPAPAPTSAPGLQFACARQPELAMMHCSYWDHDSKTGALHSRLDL
# Assay: affinity purification with mass spectrometry; tandem affinity purification (streptavidin and calmodulin) of nuclear proteins of 293T cells transfected with FOXL2-NTAP plasmid or empty vector; gel bands analysed by LC-MS/MS
substance,measurement,value
"XRCC5 (Ku80), endogenous (from UniProt P13010 1-732)",binding,binds

# Source: article PMC7181608
